Source: PubChem BioAssay AID2685 (National Center for Advancing Translational Sciences (NCATS), 2010)
The other results are listed elsewhere or left out. These are further read-outs of the screen, such as a control signal, another cell line or another target. No call is given for them. Most of these compounds were active or inconclusive in the main read-out, so they are no random draw. The note in brackets gives the kind of curve behind each potency; many fits are weak.

Experiment: qHTS Assay for Lipid Storage Modulators in Drosophila S3 Cells;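 as to cell number change: cells counted by Cell Tracker Red CMTPX staining in the red channel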
Settings: BODIPY lipid droplet fluorescence, 18-24 h; for cell number change: measured here: cell count max response, cells fed with added oleic acid
Method in brief: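 Laser-scanning cytometry quantifies lipid droplet accumulation (500–530 nm total intensity; droplet/cell object ratio) in oleic acid-fed (400 uM added) Drosophila S3 cells treated with a concentration series. 20 uM Triacsin C defined 100% inhibition.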

[1] = measured here: cell number channel AC50, cells fed with added oleic acid
[2] = measured here: lipid fluorescence (Fed channel) AC50, cells fed with added oleic acid

Row | Compound | cell number change | AC50 [1] | AC50 [2]
1 | O=C(CC(=O)NC1CCCCC1)N/N=C/c1ccccc1F | 80.6% | 29.1 µM [rising, single point] | –
2 | Cc1ccc(C(C(=O)NC2CCCCC2)N(CCCN2CCOCC2)C(=O)c2snc(C(N)=O)c2N)cc1 (configuration not stated) | 4.76% | – | 6.51 µM [falling, single point]
3 | CCOC(=O)C1=C(CNCCc2ccc(Cl)cc2)NC(=O)NC1c1ccc2c(c1)OCO2 (configuration not stated) | 199% | 5.17 µM [rising, partial curve] | 4.61 µM [rising, partial curve]
4 | O=C(COC(=O)CCCN1C(=O)c2cccc3cccc(c23)C1=O)Nc1cccc(Br)c1 | 40.6% | 25.9 µM [rising, single point] | 20.6 µM [rising, single point]
5 | O=C(NCC1CCCO1)c1cc(-c2ccco2)nc2ccccc12 (configuration not stated) | -19.5% | – | 4.11 µM [rising, partial curve]
6 | CC(C)C(NS(=O)(=O)c1cccc2nsnc12)C(=O)NCc1ccc2c(c1)OCO2 (configuration not stated) | -19.2% | 0.0058 µM [falling, full curve, poor fit] | 0.0461 µM [falling, full curve, poor fit]
7 | O=C1c2ccccc2-c2nnc(-c3ccc(O)cc3)cc21 | -13.1% | – | –
8 | Cc1cc(O)c(-c2cc(O)c(C)cc2O)cc1O | -68.3% | 18.4 µM [falling, partial curve] | 29.1 µM [falling, single point]
9 | N#Cc1c(NC(=O)C2CC2)sc2c1CCCCC2 | -42.3% | 29.1 µM [falling, single point] | 14.6 µM [falling, partial curve, poor fit]
10 | COc1cc2nc(N3CCN(C(=O)[C@H]4COc5ccccc5O4)CC3)nc(N)c2cc1OC | 8.03% | – | 6.51 µM [falling, single point]
11 | Cc1ccc(C(=O)c2ccccc2C(=O)OCC(=O)N2CC(C)CC(C)C2)cc1 (configuration not stated) | -24.9% | 2.91 µM [falling, partial curve] | 2.06 µM [falling, partial curve]
12 | N=C1SCC(=O)N1c1ccccc1Cl | 23.6% | 0.206 µM [rising, full curve, poor fit] | 29.1 µM [falling, single point]
13 | COc1ccc(-c2cc3ccccc3n2CC(O)CN2CCOCC2)cc1 (configuration not stated) | 6.26% | – | 23.1 µM [rising, single point]
14 | CCCCn1c(C)cc2c(c1=O)C1O[C@](c3ccc(OC)cc3)(Cc3cc(OC)c(OC)cc31)O2 | 8.44% | – | –
15 | COC(=O)C1=NN(c2cccc(C)c2)C2C(=O)N(c3ccccc3OC)C(=O)C12 (configuration not stated) | -47.6% | 32.6 µM [falling, partial curve, poor fit] | 4.61 µM [falling, full curve]
16 | CC(C)C1=CC(=Nc2ccc(S(N)(=O)=O)cc2)C=C(C(C)C)C1=O | -30.2% | 11.6 µM [falling, single point] | –
17 | Cc1c(Cl)cccc1N=C1SCCN1C(=O)CN1C(=O)NC2(CCCC2)C1=O | 107% | 16.4 µM [rising, single point] | –
18 | COc1ccc(-c2nc(CS(=O)(=O)CC(=O)NCCc3ccccc3)c(C)o2)cc1 | -17.1% | – | 6.51 µM [falling, single point]
19 | CC(=O)C(Sc1ncnc2c1nnn2-c1ccc(F)cc1)C(=O)N(C)C (configuration not stated) | – | 0.259 µM [falling, full curve, poor fit] | 6.51 µM [falling, single point]

3 compounds already listed, sorted by count of non-hydrogen atoms, smallest number first.
Row | Compound | cell number change | AC50 [1] | AC50 [2]
9 | N#Cc1c(NC(=O)C2CC2)sc2c1CCCCC2 | -42.3% | 29.1 µM [falling, single point] | 14.6 µM [falling, partial curve, poor fit]
13 | COc1ccc(-c2cc3ccccc3n2CC(O)CN2CCOCC2)cc1 (configuration not stated) | 6.26% | – | 23.1 µM [rising, single point]
10 | COc1cc2nc(N3CCN(C(=O)[C@H]4COc5ccccc5O4)CC3)nc(N)c2cc1OC | 8.03% | – | 6.51 µM [falling, single point]

The list goes on:

Row | Compound | cell number change | AC50 [1] | AC50 [2]
20 | O=C(O)c1ccc(NCc2ccncc2)cc1 | -45.8% | 9.2 µM [falling, single point] | –
21 | [O-][n+]1c2ccccc2cc2ccccc21 | -31.5% | 9.2 µM [falling, single point] | 0.103 µM [falling, full curve, poor fit]
22 | CS(=O)(=O)c1cccc(C(=O)OCC(=O)Nc2ccc3c(c2)OCO3)c1 | -8.84% | – | 0.82 µM [falling, full curve, poor fit]
23 | Cc1ccc(S(=O)(=O)N2CCCC2CNC(=O)C(=O)Nc2ccc(F)cc2)cc1 (configuration not stated) | 81.1% | 11.6 µM [rising, partial curve] | –
24 | Cc1cccc([N+](=O)[O-])c1C(=O)O | 7.96% | – | 29.1 µM [rising, partial curve, poor fit]
25 | Clc1ccc(-c2nnc(CSc3nnc(-c4cccs4)n3Cc3ccccc3)o2)cc1 | -0.219% | – | –
26 | CN(C)c1cccc(O)c1 | -5.05% | – | –
27 | COC(=O)c1ccc(NC(=O)CN(c2ccc3c(c2)OCO3)S(C)(=O)=O)cc1 | – | 0.82 µM [rising, partial curve] | –
28 | CCc1ccc(-c2cc(C)no2)cc1S(=O)(=O)N1CCN(c2ccc(C(C)=O)cc2)CC1 | -19.2% | – | 29.1 µM [falling, single point]
29 | Cc1nn(C)c(Nc2ccc(Br)cc2)c1Br | -25.4% | – | –
30 | COc1ccc(/C(O)=C/C(=O)C(=O)NNC(=O)c2ccccc2)cc1 | – | – | 0.116 µM [rising, full curve, poor fit]
31 | COC(=O)C(C)Oc1ccc(-c2nccc(-c3ccccn3)n2)cc1 (configuration not stated) | 11.8% | – | 2.91 µM [rising, full curve, poor fit]
32 | NC(=O)Cn1cc(/C=N\NS(=O)(=O)c2ccc(Cl)cc2)c2ccccc21 | 30.1% | – | –
33 | CCCCc1nc2ccccc2n1Cc1nnc2n1-c1ccccc1SC2 | 8.62% | 0.184 µM [rising, full curve] | 0.184 µM [rising, full curve]
34 | CC(=O)Nc1ccc(C(=O)OCC(=O)N2CCCC2)cc1 | 20.7% | – | 7.31 µM [rising, partial curve]
35 | CC1CC(C)(C)NC(=S)N1CC(=O)NCc1ccccc1Cl (configuration not stated) | -8.03% | – | 9.2 µM [falling, partial curve, poor fit]
36 | COc1ccc(CNC(=O)C(C)c2ccc([N+](=O)[O-])cc2)cc1 (configuration not stated) | -9.18% | – | –
37 | c1coc(C2Nc3ccccc3-c3nc4ccccc4n32)c1 (configuration not stated) | 12.8% | 0.461 µM [rising, full curve, poor fit] | 0.92 µM [rising, partial curve]
38 | COc1cc(/C=C/C(=O)OCC(=O)Nc2c(C)n(C)n(-c3ccccc3)c2=O)cc(OC)c1OC | 30.4% | 29.1 µM [rising, single point] | 18.4 µM [falling, single point]

Row | Compound | cell number change | AC50 [1] | AC50 [2]
39 | Cn1c(=O)c([N+](=O)[O-])c(-n2ccnc2)c2ccccc21 | -71.4% | 4.61 µM [falling, full curve] | 4.61 µM [falling, full curve]
40 | COc1cc(OC)cc(C(=O)NC2CC3CCC(C2)N3Cc2ccco2)c1 (configuration not stated) | -0.17% | 3.26 µM [falling, single point] | –
41 | CCOC(=O)C(C)n1cnc2scc(-c3ccc(C)cc3)c2c1=O (configuration not stated) | -20.9% | – | 29.1 µM [falling, single point]
42 | Cc1onc(C(=O)N2CCN(c3ccccc3F)CC2)c1-c1ccccc1Cl | 22.6% | 0.00651 µM [rising, full curve, poor fit] | 0.58 µM [rising, full curve]
43 | CC(=O)c1ccc(S(=O)(=O)N2CCN(S(=O)(=O)c3ccccc3C(F)(F)F)CC2)cc1 | 20.7% | – | 23.1 µM [rising, single point]
44 | O=C(CN1CCCCC1)Nc1scc2c1c(=O)oc1ccccc12 | -4.36% | – | 0.0411 µM [rising, partial curve, poor fit]
45 | COc1cc(NC(=S)NC2CC(C)(C)NC(C)(C)C2)c(OC)cc1Cl | 1.81% | – | –
46 | NC(=O)NCCCC(=O)OCC(=O)c1ccc2ccccc2c1 | -8.95% | – | 2.91 µM [rising, single point]
47 | N#CC1=C(Nc2ccccc2)SC=C(c2ccc(F)cc2)N=C1N1CCOCC1 | 6.42% | – | 0.00651 µM [falling, full curve, poor fit]
48 | COc1cccc(Nc2nc(-c3sc(NC(=O)c4ccco4)nc3C)cs2)c1 | -39.9% | 29.1 µM [falling, single point] | 23.1 µM [falling, partial curve, poor fit]
49 | COc1ccc(Cl)cc1N(C(=O)c1ccco1)C(C(=O)NC1CCCC1)c1ccncc1 (configuration not stated) | 2.56% | – | 5.17 µM [falling, single point]
50 | O=C(Cc1csc(N2CCOCC2)n1)N/N=C/c1ccc(Cl)cc1Cl | – | 0.651 µM [rising, single point] | 23.1 µM [rising, partial curve]
51 | CCN(CC)CCN(C(=O)c1c(F)cccc1F)c1nc2cc(C)cc(C)c2s1 | -38.3% | 29.1 µM [falling, single point] | 23.1 µM [falling, single point]
52 | COc1cc2c(cc1NC(=O)CN1CCN(S(=O)(=O)c3ccccc3F)CC1)oc1ccccc12 | 14.3% | – | 29.1 µM [falling, single point]
53 | CC1=C/C(=N\N=C2\NC(=O)C(CC(=O)Nc3ccccc3)S2)CC(C)(C)C1 (configuration not stated) | -2.76% | – | –
54 | COc1ccccc1C(=O)NNC(=O)Cc1ccccc1 | 7.62% | – | –
55 | Cc1ccc(NC(=O)C/C(N)=N/OC(=O)Nc2cccc(Cl)c2)cc1 | -2.59% | – | 0.00517 µM [falling, full curve, poor fit]
56 | COc1cc(/C=C2/SC(=O)N(Cc3ccccc3)C2=O)ccc1OCc1ccncc1 | 33.5% | 2.91 µM [rising, full curve] | 11.6 µM [rising, partial curve]
